Source: PubChem BioAssay AID504648 (National Center for Advancing Translational Sciences (NCATS), 2011)
Hit rate of the full screen: of about 390,000 compounds, about 610 (0.16%) were called active. The shares of active, inactive and inconclusive entries below differ from those in the screen. Calls come from the whole dose curve; as a rule, active = well fitted inhibition curve with a large enough effect; inconclusive = small, poorly fitted or top-dose-only effect, or effect the other way, or another doubt; inactive = no such curve, though single readings can be large or run the other way. Where the call is inconclusive, the potency comes from a doubtful curve fit.

Test: Nrf2 qHTS screen for inhibitors: counterscreen for cytotoxicity
Settings: A549 ARE-Fluc cells, CellTiter-Fluor viability, 18-24 h; activity change, negative = cytotoxicity: at 46 µM (top of the series)
Outline: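 A549 ARE-Fluc cells in 5% FBS OPTI-MEM, 5000 cells/well, rested 2 h then exposed to compounds in concentration-response for 18-24 h at 37 °C. Viability by CellTiter-Fluor fluorescence (Ex 405/Em 525) after 30 min; luciferase luminescence (BugLite, 15 min, RT) read afterwards.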
% is set by controls: 0 for no effect and ±100 for the full control effect; potency is the fitted concentration of half-maximal effect.

Row | SMILES | Potency | activity change, negative = cytotoxicity
1 | CCCCOc1ccc(S(=O)(=O)Nc2ccc(-c3ccc(N4CCCCCC4)nn3)cc2)cc1 | inconclusive: 5.8 µM [falling, partial curve, poor fit] | 
2 | Fc1ccccc1N=C1NN=C(c2ccccc2)CS1 | inconclusive: 18.4 µM [falling, single point] | 
3 | COc1ccccc1CNS(=O)(=O)c1ccc(Br)s1 | inconclusive: 20.6 µM [activator, partial curve, poor fit] | 
4 | COCCCNC(=O)c1ccccc1N(Cc1ccccc1)S(=O)(=O)c1ccc(OC)cc1 | inconclusive: 20.6 µM [falling, partial curve, poor fit] | 
5 | NC(=O)c1ccc(C(F)(F)F)n(Cc2ccc(Cl)cc2)c1=O | inconclusive: 29.1 µM [falling, single point] | 
6 | O=C(Nc1ccc(NC(=O)C2CCCCC2)cn1)c1ccco1 | inconclusive: 7.31 µM [falling, partial curve, poor fit] | 
7 | O=C(CCl)c1cc2c3c(c1)CC(=O)N3CCC2 | inactive | 
8 | Fc1cccc(Cl)c1-c1nnc2ccc3ccccc3n12 | inconclusive: 23.1 µM [falling, partial curve, poor fit] | 
9 | CCOCCCN1C(=O)CN(C2CCCCCC2)C(=O)C1c1ccc(OC(C)C)c(OC)c1 (stereo unspecified) | inactive | 
10 | O=c1cc(N2CCN(c3ccccc3)CC2)[nH]c(=O)n1C1CCCCC1 | inconclusive: 23.1 µM [falling, partial curve, poor fit] | 
11 | N=c1c2c(n(Cc3ccc([N+](=O)[O-])cc3)c3c1CCC3)CCCC2 | inactive | 
12 | COC(=O)c1ccc(CSc2cc(C)c3ccccc3n2)o1 | inactive | 
13 | CCOC(=O)N1CCN(C(=O)c2ccc(SC)cc2OC)CC1 | inactive | 
14 | CC1=NN(C(=O)CSCc2ccccc2)C(O)(c2ccc(Cl)cc2)C1 (stereo unspecified) | inconclusive: 23.1 µM [falling, single point] | 
15 | COc1ccccc1CC(=O)N(Cc1ccccc1)c1ccc(C)cc1 | inconclusive: 23.1 µM [falling, partial curve, poor fit] | 
16 | COc1ccc(-c2ccc(F)cc2)cc1C1C2C=CCC(C)C2C(=O)N1Cc1ccccc1 (stereo unspecified) | inactive | 
17 | [O-][n+]1ccc(OCc2ccccc2)cc1 | inconclusive: 18.4 µM [falling, single point] | 
18 | Cc1cccc(C)c1OCCn1c(C2CC(=O)N(c3cccc(Cl)c3)C2)nc2ccccc21 (stereo unspecified) | inconclusive: 29.1 µM [falling, single point] | 
19 | CCC(=O)NC(=S)Nc1ccc(NC(=O)COc2ccc(Cl)cc2Cl)cc1 | inactive | 
20 | CC(C)c1nnc(NC(=O)C2CCN(c3nc4ccccc4s3)CC2)s1 | inconclusive: 23.1 µM [falling, partial curve, poor fit] | 
21 | Clc1ccccc1-c1ncc(-c2ccccc2)o1 | inactive | 
22 | Cn1ncc(N=Cc2ccc([N+](=O)[O-])cc2)c1C(=O)N1CCOCC1 | inconclusive: 20.6 µM [activator, partial curve, poor fit] | 
23 | NC(N)=NC(N)=NCCc1ccccc1 | inactive | 
24 | CC(C)Sc1oc(-c2cccs2)nc1S(=O)(=O)c1ccc(Cl)cc1 | inconclusive: 20.6 µM [activator, partial curve, poor fit] | 

Row | SMILES | Potency | activity change, negative = cytotoxicity
25 | CC1(C(=O)N/N=C/c2ccc([N+](=O)[O-])o2)CC1(Br)Br (stereo unspecified) | inconclusive: 18.4 µM [falling, single point] | 
26 | CCOc1ccc(NC(=O)NCc2c(-n3cccc3)sc3c2CCCC3)cc1 | inconclusive: 16.4 µM [activator, partial curve, poor fit] | 
27 | COc1cc(CC(=O)Nc2nc(-c3ccc(F)c(F)c3)cs2)cc(OC)c1OC | inconclusive: 18.4 µM [falling, single point] | 
28 | Cc1cccc(OCCCC(=O)Nc2nc3ccccc3[nH]2)c1 | inactive | 
29 | Cc1cc(C)c2sc(N(CCCN(C)C)C(=O)c3ccc(Br)s3)nc2c1 | inconclusive: 29.1 µM [falling, single point] | 
30 | CCOc1cc(/C=C2\C(=O)ON=C2c2ccccc2)ccc1OC | inactive | 
31 | Cc1ccc(-c2cc3ccccc3nc2N2CCOCC2)cc1 | inconclusive: 18.4 µM [activator, partial curve, poor fit] | 
32 | COc1ccc(CNC(=O)CN2C(=O)NC(Cc3ccccc3)(c3ccccc3)C2=O)cc1OC (stereo unspecified) | inactive | 
33 | O=C(C1CC1)N1CCc2cc(Br)cc(S(=O)(=O)N3CCN(c4cccc(C(F)(F)F)c4)CC3)c21 | inconclusive: 25.9 µM [activator, partial curve, poor fit] | 
34 | COc1ccccc1CNC(=O)C1CCCN(c2nc3ccccc3n3cccc23)C1 (stereo unspecified) | inactive | 
35 | CCC(=O)N1CCc2cc(Br)cc(S(=O)(=O)N3CCC(C(=O)NCCCOC(C)C)CC3)c21 | inactive | 
36 | Cc1noc(/C=C/c2cccs2)c1S(=O)(=O)N1CCC(C(=O)Nc2ccc(F)c(Cl)c2)CC1 | inactive | 
37 | CC(C)C[C@H](CO)Nc1nc(Nc2cccc(Cl)c2)c2ncn(C(C)C)c2n1 | inactive | 
38 | CSc1ncc2c(n1)-c1ccccc1N(Cc1ccc(Cl)cc1)S2(=O)=O | inactive | 
39 | CC(C)[C@H](NC(=O)N1CCn2c1nc1ccccc12)C(=O)NC1CCCCC1 | inconclusive: 29.1 µM [falling, single point] | 
40 | O=C(Nc1ccc(F)cc1)Nc1ccc(N2CCCC2)c(S(=O)(=O)Nc2ccccc2Cl)c1 | inconclusive: 29.1 µM [falling, single point] | 
41 | CSc1ncc(Cl)c(C(=O)Nc2ccc(NC(C)=O)cc2)n1 | inactive | 
42 | COc1ccc(S(=O)(=O)N2CCOCC2)cc1NC(=O)Cc1ccsc1 | inactive | 
43 | COC(=O)c1ccc(-n2nnnc2SCC(=O)N2CCCCC2)cc1 | inconclusive: 20.6 µM [activator, partial curve, poor fit] | 
44 | Cc1cc(C)c(S(=O)(=O)N2CCN(C(=O)c3ccc4c(c3)OCO4)CC2)c(C)c1 | inconclusive: 4.61 µM [falling, single point] | 
45 | CCOC(=O)CC(NS(=O)(=O)c1ccc2[nH]c3c(c2c1)CCCC3)c1ccccc1Cl (stereo unspecified) | inconclusive: 20.6 µM [falling, single point] | 
46 | CCCCOc1ccc(CSc2nc(C)[nH]c2[N+](=O)[O-])cc1[N+](=O)[O-] | inconclusive: 29.1 µM [falling, single point] | 
47 | CCc1ccc(OCc2n[nH]c(=S)n2C(C)CCCC(C)C)cc1 (stereo unspecified) | inconclusive: 29.1 µM [falling, single point] | 
48 | S=C(NCCc1ccc(Cl)cc1)Nc1ccc(Cl)cc1Cl | inconclusive: 29.1 µM [falling, single point] | 

Row | SMILES | Potency | activity change, negative = cytotoxicity
49 | O=CNCC(=O)NCCc1ccc(Cl)cc1 | inconclusive: 4.61 µM [falling, partial curve, poor fit] | 
50 | Cc1ccc(C(=O)O)cc1-c1ccc(/C=C2/NC(=O)N(c3ccccc3)C2=O)o1 | inconclusive: 20.6 µM [falling, partial curve, poor fit] | 
51 | COc1ccc(-c2cc3nc(C)cc(C)n3n2)cc1 | inactive | 
52 | O=C(COc1ccc(Cl)cc1Cl)NNC(=S)Nc1ccc(F)cc1 | inconclusive: 25.9 µM [falling, single point] | 
53 | CC1=C(c2ccc(C)c(C)c2)S(=O)(=O)N(Cc2ccc(C(=O)NCc3cccc(C)c3)cc2)C1=O | inactive | 
54 | COc1cc(C(=O)Nc2ccc3nc(SCc4ccc(C)cc4)sc3c2)cc(OC)c1OC | inconclusive: 18.4 µM [falling, partial curve, poor fit] | 
55 | Cc1ccc(Cl)cc1-n1ncc2c(NC3CCCCCC3)ncnc21 | inconclusive: 29.1 µM [falling, partial curve, poor fit] | 
56 | Cc1ccc(-n2nc(C)c(NC(=O)CCl)c2C)cc1 | inconclusive: 6.51 µM [falling, partial curve, poor fit] | 
57 | Cc1ccc(C)c(Nc2nnc(-n3nc(C)cc3C)c3ccccc23)c1 | inactive | 
58 | OC(CNCc1ccco1)COc1ccccc1 (stereo unspecified) | inactive | 
59 | Nc1ccc(C(=O)N2CCN(S(=O)(=O)c3ccc4c(c3)OCCCO4)CC2)cc1[N+](=O)[O-] | inconclusive: 18.4 µM [falling, partial curve, poor fit] | 
60 | Nc1nc(-c2ccccc2)c(N=Nc2cccc3ccccc23)s1 | active: 16.4 µM | 
61 | Cc1ccc(N(C)C(=O)c2cc(S(=O)(=O)N3CCCC3)cn2C)cc1 | inactive | 
62 | C(=N\n1cnnc1)/c1cn(Cc2ccccc2)c2ccccc12 |  | inactive: -2.99% [at 1.84 µM]
63 | Cn1nnnc1Sc1ncnc2scc(-c3ccc(F)cc3)c12 | inconclusive: 14.6 µM [falling, partial curve, poor fit] | 
64 | COc1ccccc1-c1nc(-c2ccncc2)no1 | inactive | 
65 | Cc1cc2cc(CN(Cc3nnnn3C3CCCCC3)CC3CCCO3)c(=O)[nH]c2cc1C (stereo unspecified) | inconclusive: 25.9 µM [falling, single point] | 
66 | CCN(C(=O)CCCC(=O)N(CC)c1ccccc1)c1ccccc1 | inactive | 
67 | CC(=O)N1c2ccc(S(=O)(=O)N(C)c3cc(C)ccc3C)cc2CC1C (stereo unspecified) | inconclusive: 29.1 µM [activator, partial curve, poor fit] | 
68 | O=C1CN(C(=O)CN2CCCC2)C(c2ccccc2)c2cc(Br)ccc2N1 (stereo unspecified) | inconclusive: 3.66 µM [activator, full curve, poor fit] | 
69 | COc1ccc(/C(N)=N/OC(=O)c2ccc3c(c2)OCO3)cc1 | inactive | 
70 | CCCc1ccc(C2Sc3ccccc3NC3=C2C(=O)c2ccccc23)cc1 (stereo unspecified) | inconclusive: 25.9 µM [falling, partial curve, poor fit] | 
71 | O=c1c2ccccc2nnn1CSc1nc2cc(Cl)ccc2c(=O)n1Cc1ccco1 | inconclusive: 29.1 µM [falling, partial curve, poor fit] | 
